Data from patent US20250295608A1, “PHARMACEUTICAL COMPOSITIONS AND METHODS FOR TREATING OSTEOARTHRITIS” (INSIGNIA PHARMACEUTICALS, LLC, priority 2024, published 2025).
At least one structure is not confirmed: it was looked up by name or label, or the drawing left a doubt.

What was measured:
[1] = system: arachidonic acid (AA); assay: Arachidonic acid in IL-1β-stimulated osteoarthritic synoviocytes; format: cell-based, human; details: IL-1β 1 ng/mL, 3 hours; cell lysates
Procedure: Early concentrations of arachidonic acid (AA) present in primary human synoviocytes from patients with osteoarthritis that were stimulated with 1 ng/mL final concentration interleukin 1-beta (B) for 3 hours in the presence of varying concentrations of Dex and DA in view of controls are depicted in FIG. 32. The concentrations of AA in FIG. 32 were normalized to total protein content from the cell lysates using bicinchoninic acid (BCA).

[2] = system: MMP13; assay: MMP13 relative expression in osteoarthritic chondrocytes (qRT-PCR); format: cell-based, human; details: high passage, dedifferentiated osteoarthritic chondrocytes, 14 days

With C[C@@H]1C[C@H]2[C@@H]3CCC4=CC(=O)C=C[C@]4(C)[C@@]3(F)[C@@H](O)C[C@]2(C)[C@@]1(O)C(=O)CO [Dex, dexamethasone, reference compound] the “concentration of AA normalized to total protein” value [1] was “lower than that of the control with IL-1β” and the MMP13 transcription [2] was “reduced MMP13 transcription”.
